# ± gives the standard deviation of the averaged measurements. In all, about 3,800 compounds were measured (“cell shape (eccentricity) Z-score vs DMSO control”: median about 1.1, lowest 2% from about -4.7 on). The list shows a part of the results.
# Tested on: human monocyte-derived macrophages (M0)
# Test: cell shape (eccentricity) Z-score vs DMSO control; higher = more elongated, M2-like morphology
# Conditions: 20 µM; 24 h; macrophage state: M0 (M-CSF)
row,SMILES,cell shape (Z-score)
1,O=C(/C=C/c1ccc(O)cc1)O[C@@H]1CC(O)(C(=O)O)C[C@@H](OC(=O)/C=C/c2ccc(O)cc2)C1O (stereo not given in full),1.02
2,Cc1nccn1CC1CCC2C(C1=O)c1ccccc1N2C (stereo not given),3.91
3,CC[C@H](C)C(=O)O[C@H]1C[C@H](O)C=C2C=C[C@H](C)[C@H](CC[C@@H](O)C[C@@H](O)CC(=O)O)[C@H]21,-0.136 ± 1.9
4,O=C(CCc1ccccc1)c1c(O)cc(O)cc1O,0.3
5,COC(=O)C1=C(C)NC(C)=C(C(=O)OCCCN2CCC(c3ccccc3)(c3ccccc3)CC2)[C@H]1c1cccc([N+](=O)[O-])c1,1.82
6,C=C(C)C1CC=C(CO)CC1 (stereo not given),0.825
7,CC(CC(N)=O)OC(=O)c1cc(Cl)cc(O)c1O (stereo not given),0.335
8,Oc1ccc([C@@H]2Oc3cc(O)cc(O)c3C[C@@H]2O)cc1,0.853
9,CON=C(C(=O)N[C@@H]1C(=O)N2C(C(=O)OCOC(=O)C(C)(C)C)=C(C=Cc3scnc3C)CS[C@H]12)c1csc(N)n1,-0.797
10,O=C1NC(=O)/C(=C/c2ccc3nccc(-c4ccncc4)c3c2)S1,-3.86
11,C=C1C(=O)O[C@H]2C1CCC(C)=C1C(=O)C=C(C)[C@@H]12 (stereo not given in full),-3.7
12,CCCCCCCCNC(C)C(O)c1ccc(SC(C)C)cc1 (stereo not given),-1.8
13,COc1cc(CCC(O)CC(O)CCc2ccc(O)c(O)c2)ccc1O (stereo not given),0.343
14,O=c1oc2cc(O)ccc2c2oc3cc(O)ccc3c12,2.46
15,Nc1nc2c(cnn2CCc2ccccc2)c2nc(-c3ccco3)nn12,-0.0713
16,CC1=CC(=O)C2C(C)(C)CCC[C@]2(C)[C@@]1(O)CCc1ccoc1 (stereo not given in full),-0.0485
17,CN(C)CCCN1c2ccccc2CCc2ccccc21,2.02
18,COc1ccc2c(c1)OCC(Cc1ccc(OC)c(OC)c1)C2=O (stereo not given),2.38
19,Cc1cc(O)cc(=O)o1,5.41
20,NS(=O)(=O)c1cc(C2(O)NC(=O)c3ccccc32)ccc1Cl (stereo not given),2
21,CCCS(=O)(=O)Nc1ccc(F)c(C(=O)c2c[nH]c3ncc(Cl)cc23)c1F,0.727
22,C=C1C(=O)C23CC(O)C4C(C)(C(=O)OC5OC(CO)C(O)C(O)C5O)CCCC4(C)C2=CCC1(O)C3 (stereo not given),-0.91
23,COc1cc(C2OCC3C(c4cc(OC)c5c(c4)OCO5)OCC23)cc(OC)c1OC (stereo not given),-2.6
24,CC(C)c1ccc2c(c1)C(O)CC1C(C)(CO)CCCC21C (stereo not given),0.912

row,SMILES,cell shape (Z-score)
1,Nc1cccc(S(=O)(=O)N2CCCN(S(=O)(=O)c3ccc4c(c3)OCCO4)CC2)c1,2.48
2,S=P(N1CC1)(N1CC1)N1CC1,-2.23
3,CCCCCCCCCCCCCCCC(=O)C1C(=O)OC(CO)C1=O (stereo not given),3.45
4,CCCCOc1ccc(OCCCN2CCOCC2)cc1,-1.54
5,C=C1C[C@@H]2COC(=O)[C@]2(Cc2ccc3ccccc3c2)C1,0.832
6,CCCOc1ccc2nc(NC(=O)OC)[nH]c2c1,2.27
7,N=C(N)NC(=N)Nc1ccccc1,1.72
8,CN(C)CCCc1cc(C(=O)Nc2ccc(-c3ccncc3)cc2)ccc1O,1.65
9,C=CC[C@]12C[C@@H](OC)C(=O)C(OC)=C1O[C@@H](c1cc(OC)c3c(c1)OCO3)[C@@H]2C,1.59
10,O=C(/C=C/c1ccc(C(=O)N/N=C/c2ccc(O)c(O)c2O)cc1)NO,6.26
11,CC(C)=CCCC(C)(O)C(O)Cc1cc(C(=O)O)cc(CC=C(C)C)c1O (stereo not given),-0.439
12,COc1ccccc1OCCNCC(O)COc1cccc2[nH]c3ccccc3c12 (stereo not given),1.31
13,CC1OC(Oc2cc(O)c3c(=O)cc(-c4ccc(O)cc4)oc3c2C2OC(CO)C(O)C(O)C2O)C(O)C(O)C1O (stereo not given),0.904
14,c1ccc2c(c1)CN1CCCC1=N2,-3.56
15,COc1ccc(C(C)=O)c(O)c1,-2.74
16,COc1ccc(CCCOC(Cn2ccnc2)c2ccc(OC)cc2)cc1 (stereo not given),-2.89
17,COc1c(CCC(=O)O)c(O[C@@H]2O[C@H](CO)[C@@H](O)[C@H](O)[C@H]2O)cc2occc12,1.58 ± 2.6
18,CC1=C[C@@H](O)[C@H]2C(C)(C)CCC[C@]2(C)[C@@]1(O)CO,0.732
19,COC(=O)NC(C(=O)N[C@@H](Cc1ccccc1)C(O)CN(Cc1ccc(-c2ccccn2)cc1)NC(=O)C(NC(=O)OC)C(C)(C)C)C(C)(C)C (stereo not given in full),2.43
20,Cc1ccc(Sc2cncc3sc(C(N)=O)cc23)cc1,-1.04
21,CC(=O)O[C@@H]1[C@@H](O)[C@H](C)O[C@@H](O[C@H]2[C@@H]3C=CO[C@@H](O[C@@H]4O[C@H](CO)[C@@H](O)[C@H](O)[C@H]4O)[C@@H]3[C@@]3(CO)O[C@@H]23)[C@@H]1OC(=O)/C=C/c1ccc(O)cc1,-0.936 ± 2.8
22,C=CC1C(OC2OC(CO)C(O)C(O)C2O)OC=C(C(=O)OC)C1CC1CC(=O)CC(CC(=O)CCc2ccc(O)cc2)O1 (stereo not given),-0.527 ± 1.2
23,C=C[C@](C)(O)CC[C@H]1C(C)=CC(=O)[C@H]2C(C)(C)CCC[C@]12C,-0.256
24,Cc1onc(-c2ccccc2)c1C(=O)NC1C(=O)N2[C@@H]1SC(C)(C)[C@@H]2C(=O)O (stereo not given in full),2.28

row,SMILES,cell shape (Z-score)
1,Cc1c(C(=O)Nc2ccc(N3C[C@@H](C)O[C@@H](C)C3)nc2)cccc1-c1ccc(OC(F)(F)F)cc1,7.49
2,CCN1CCC[C@H]1CNC(=O)c1cc(S(N)(=O)=O)ccc1OC,2.4
3,Cc1nc2c(OCc3ccccc3)cccn2c1CC#N,1.89
4,CO[C@H]1C(=O)c2c(O)c(CC=C(C)C)c(O)c(CC=C(C)C)c2O[C@@H]1c1ccc(O)cc1,0.31
5,CN(C)[C@@H]1CCc2[nH]c3ccc(NC(=O)c4ccc(F)cc4)cc3c2C1,1.27
6,CC(C)C(=O)Nc1cccc(C(F)(F)F)c1,-2.35
7,CC1=CCC[C@@H]2[C@@](C)(CCc3ccoc3)[C@H](C(=O)O)CC[C@@]12C,1.45
8,COc1cc(O)c(C(=O)CCc2ccccc2)c(O)c1Cc1ccccc1O,-1.01
9,COc1cc(C=C(C#N)C(N)=O)cc(CSc2nc3ccccc3s2)c1O,4.48
10,COc1cccc(-c2cc(=O)c3cc(OC)ccc3o2)c1,3.01
11,C/C=C/C1=C(Cl)C(=O)[C@@H](O)[C@@]1(O)C(=O)OC,0.319
12,CC(CCC1(C)C(C)CCC2(CO)C(CO)=CCCC21)CC(=O)O (stereo not given),2.53
13,C=CC(=O)Nc1cccc(Sc2nc(Nc3ccc(N4CCN(C)CC4)cc3)ncc2Cl)c1,0.842
14,O=C(O)c1cc(=O)c2c(OCC(O)COc3cccc4oc(C(=O)O)cc(=O)c34)cccc2o1,-4.64
15,CN(C)c1ccc(C2Nc3ccc4ccccc4c3C3=C2C(=O)CC(C)(C)C3)cc1Br (stereo not given),3.85
16,C=C(C(=O)O)[C@@H]1CC[C@@]2(C)CCC[C@@](C)(O)[C@@H]2C1,-2.11
17,C[C@H](N)C(=O)N[C@@H](C)P(=O)(O)O,0.103
18,COc1ccc(C(=C2C(=O)Nc3ccccc32)c2ccc(OC)cc2)cc1,1.61
19,Oc1cc2c(cc1O)C(c1ccccc1)CNCC2 (stereo not given),-0.592
20,CC[C@H](Nc1ncnc2[nH]cnc12)c1nc2cccc(F)c2c(=O)n1-c1ccccc1,6.34
21,O=S(=O)(c1cccc2c(Cl)cccc12)N1CCCNCC1,1.65
22,Cc1scc2c1N(C(=O)CN1CCN(C)CC1)c1ccccc1NC2=O,0.841
23,C=C(C)[C@@H]1CC[C@]2(C(=O)O)CC[C@]3(C)[C@H](CC[C@@H]4[C@@]5(C)CC[C@H](O)C(C)(C)[C@@H]5CC[C@]43C)[C@@H]12,4.66
24,COC(=O)Nc1nc2cc(C(=O)C3CC3)ccc2[nH]1,-3.64

# In the list so far, four contain an aryl thioether with sulfur outside any ring.
row,SMILES,cell shape (Z-score)
12,CCCCCCCCNC(C)C(O)c1ccc(SC(C)C)cc1 (stereo not given),-1.8
20,Cc1ccc(Sc2cncc3sc(C(N)=O)cc23)cc1,-1.04
9,COc1cc(C=C(C#N)C(N)=O)cc(CSc2nc3ccccc3s2)c1O,4.48
13,C=CC(=O)Nc1cccc(Sc2nc(Nc3ccc(N4CCN(C)CC4)cc3)ncc2Cl)c1,0.842

# (listing goes on)

row,SMILES,cell shape (Z-score)
1,Nc1c2c(nc3ccccc13)CCCC2,1.05
2,COc1cc2c(c(O)c1OC)C(=O)CC(c1ccc(O)cc1)O2 (stereo not given),0.892
3,CCCCC[C@H](CC(=O)NO)C(=O)N[C@H](C(=O)N1CCC[C@H]1CO)C(C)C,1.7
4,Cc1cccc(C2CN(C)CCc3c2cc(O)c(O)c3Cl)c1 (stereo not given),-1.2
5,CC1=CCC[C@@H]2[C@](CCc3ccoc3)(C(=O)O)[C@H](C)CC[C@@]12C,1.21
6,C[C@@H]1O[C@@H](OC[C@H]2O[C@@H](OCCc3ccccc3)[C@H](O)[C@@H](O)[C@@H]2O)[C@H](O)[C@H](O)[C@H]1O,3.36
7,CN(C)c1nc(N)c(C(=O)Nc2cccnc2)nc1Cl,3.66
8,CN(C)CCC(c1ccc(Cl)cc1)c1ccccn1 (stereo not given),1.59
9,Cc1ccc(/C=C2/CNC/C(=C\c3ccc(C)cc3)C2=O)cc1,4.05
10,C[C@]1(O)CC[C@@H]2C(C(=O)O)=CO[C@@H](O[C@@H]3O[C@H](COC(=O)c4ccc(O)cc4)[C@@H](O)[C@H](O)[C@H]3O)[C@@H]21,0.805
11,CCCCC/C=C\C/C=C\C/C=C\C/C=C\CCCC(=O)C(F)(F)F,1.99
12,CC[C@]12CCCN3CCc4c(n(c5ccccc45)[C@](O)(C(=O)OC)C1)[C@@H]32,7.05
13,COc1ccccc1N1CCN(CCN2C(=O)CC3(CCCC3)CC2=O)CC1,1.31
14,CC1OC(Oc2cc(O)c3c(=O)c(OC4OC(CO)C(O)C(O)C4OC4OC(C)C(O)C(O)C4O)c(-c4ccc(O)cc4)oc3c2)C(O)C(O)C1O (stereo not given),3.29
15,COc1cc(Nc2ncc3c(n2)-c2ccc(Cl)cc2C(c2c(F)cccc2OC)=NC3)ccc1C(=O)O,6.23
16,Cc1oncc1C(=O)Nc1ccc(C(F)(F)F)cc1,3.67
17,COc1ccc(-c2cc(=O)c3c(O)cc(O[C@@H]4O[C@H](CO[C@H]5O[C@H](C)[C@@H](O)[C@H](O)[C@@H]5O)[C@@H](O)[C@H](O)[C@H]4O)cc3o2)cc1O,-1.9
18,CC(=O)NCCc1c(Cc2ccccc2)[nH]c2ccccc12,-1.38
19,O=C1Cc2c([nH]c3ccc(Br)cc23)-c2ccccc2N1,2.92
20,C=C1C(=O)OC2CC(C)C3(/C=C/C(C)=O)OC3CC12 (stereo not given),-0.845
21,COc1ccc(CN2C(=O)C3C(c4ccccc4CC34CCCC4)n3nnnc32)cc1 (stereo not given),0.819
22,COc1ccccc1-c1cc(=O)c2c(O[C@@H]3O[C@H](CO)[C@@H](O)[C@H](O)[C@H]3O)cc(OC)c(OC)c2o1,-1.41
23,CCOC(=O)c1ccc(O)cc1,0.429

# Random excerpt: 3 records from the list, in no set order.
row,SMILES,cell shape (Z-score)
14,c1ccc2c(c1)CN1CCCC1=N2,-3.56
6,CCCOc1ccc2nc(NC(=O)OC)[nH]c2c1,2.27
24,Cc1onc(-c2ccccc2)c1C(=O)NC1C(=O)N2[C@@H]1SC(C)(C)[C@@H]2C(=O)O (stereo not given in full),2.28
